# Results taken from US9371365B2, “Modified compstatin with peptide backbone and C-terminal modifications” (The Trustees of the University of Pennsylvania, priority 2009, dated 2016).
# Part of at least one peptide drawing is inferred or uncertain, most often the ends.
# System: classical pathway of complement
# Assay: Inhibition of classical pathway complement activation, ELISA in human serum
# Assay type: biochemical
# Conditions: for IC50: classical pathway, human serum, Table 2-1; for IC50 (fold change): relative to peptide 17
# Method: The ability of the compstatin analogs to inhibit the activation of the classical pathway of complement was assessed by ELISA (Mallik et al., 2005, J Med Chem 48:274-86). In brief, complement was activated in human serum using an antigen-antibody complex in the presence or absence of compstatin analogs, and the deposition of C3 fragments on the plate surface was detected using an HRP-conjugated polyclonal anti-C3 antibody. […] The percent inhibition was plotted against the peptide concentration, and the resulting data set was fitted to the logistic dose-response function using Origin 7.0 software. IC50 values were obtained from the fitted parameters that produced the lowest χ^2 value. Each analog was assayed at least three to seven times.
# The ability of the compstatin analogs to inhibit the activation of the classical pathway of complement was assessed by ELISA as described in Example 1. Each conjugate was assayed at least three times.
Compound,IC50,IC50 (fold change)
CC[C@H](C)[C@H](NC(C)=O)C(=O)N[C@H]1CSSC[C@@H](C(=O)N[C@H](C(=O)NCCOCCOCCOCC(=O)NCCOCCOCCOCC(=O)N[C@@H](CCCCNC(=O)CCNS(=O)(=O)c2ccc3ccccc3c2)C(N)=O)[C@@H](C)CC)NC(=O)[C@H](CCCNC(=N)N)NC(=O)[C@H](Cc2c[nH]cn2)NC(=O)[C@H](C)NC(=O)CN(C)C(=O)[C@H](Cc2c[nH]c3ccccc23)NC(=O)[C@H](CC(=O)O)NC(=O)[C@H](CCC(N)=O)NC(=O)[C@H](Cc2cn(C)c3ccccc23)NC(=O)[C@H](C(C)C)NC1=O [Peptide 17-ABM],137 nM,0.67
CC[C@H](C)[C@H](NC(C)=O)C(=O)N[C@H]1CSSC[C@@H](C(=O)N[C@H](C(=O)NCCOCCOCCOCC(=O)NCCOCCOCCOCC(=O)N[C@@H](CCCCNC(=O)Cn2cc(C(=O)N[C@@H](CCCNC(=N)N)C(=O)N[C@@H](CC(C)C)C(=O)N[C@H](C(=O)N[C@@H](CCC(=O)O)C(=O)N[C@@H](CC(=O)O)C(=O)N[C@H](C(=O)N[C@H]3CSSC[C@@H](C(=O)N[C@@H](CC(C)C)C(=O)N[C@@H](Cc4c[nH]c5ccccc45)C(=O)N[C@@H](CCC(=O)O)C(=O)N[C@@H](CC(=O)O)C(=O)N[C@@H](CC(=O)O)C(N)=O)NC(=O)CNC(=O)[C@H](Cc4c[nH]c5ccccc45)NC(=O)[C@H](CCCNC(=N)N)NC(=O)[C@@H]4CCCN4C(=O)[C@H](CC(C)C)NC3=O)[C@@H](C)CC)[C@@H](C)CC)nn2)C(N)=O)[C@@H](C)CC)NC(=O)[C@H](CCCNC(=N)N)NC(=O)[C@H](Cc2c[nH]cn2)NC(=O)[C@H](C)NC(=O)CN(C)C(=O)[C@H](Cc2c[nH]c3ccccc23)NC(=O)[C@H](CC(=O)O)NC(=O)[C@H](CCC(N)=O)NC(=O)[C@H](Cc2cn(C)c3ccccc23)NC(=O)[C@H](C(C)C)NC1=O [Peptide 17-ABP],242 nM,0.38
